Measurements from paper PMC4706423.
Where a chain is given by its changes, count along the chain named. No constants are given. Whether binding was seen depends on the method and setting. For some assays here: A result given as binding can be weak or reduced; the word gives no strength. Sequences can lack the tags named with a protein. For some assays here: In cells and extracts the contact can be indirect.

The chains behind the UniProt entries cited, without tags or fusion partners. Where a name states a change or a piece, a line headed by the entry shows the natural chain unless it says otherwise.
UniProt Q9C690: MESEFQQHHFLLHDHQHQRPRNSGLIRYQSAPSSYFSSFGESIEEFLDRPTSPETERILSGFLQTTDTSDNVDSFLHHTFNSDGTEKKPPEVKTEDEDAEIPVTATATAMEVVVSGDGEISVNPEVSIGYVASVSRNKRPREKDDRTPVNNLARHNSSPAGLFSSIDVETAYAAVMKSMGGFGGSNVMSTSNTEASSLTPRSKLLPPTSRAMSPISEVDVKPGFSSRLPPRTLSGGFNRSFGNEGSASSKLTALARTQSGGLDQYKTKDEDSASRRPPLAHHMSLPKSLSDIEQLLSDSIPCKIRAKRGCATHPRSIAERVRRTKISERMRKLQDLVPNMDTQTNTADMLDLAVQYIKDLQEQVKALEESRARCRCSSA
UniProt Q9C8P8: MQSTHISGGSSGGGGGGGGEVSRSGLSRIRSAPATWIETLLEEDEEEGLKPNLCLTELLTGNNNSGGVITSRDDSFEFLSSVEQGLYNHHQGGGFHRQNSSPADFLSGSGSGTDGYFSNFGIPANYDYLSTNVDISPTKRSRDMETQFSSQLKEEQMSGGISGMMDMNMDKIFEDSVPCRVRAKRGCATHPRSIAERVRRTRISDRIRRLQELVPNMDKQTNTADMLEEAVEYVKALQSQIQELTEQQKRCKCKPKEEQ
UniProt Q9M0R0: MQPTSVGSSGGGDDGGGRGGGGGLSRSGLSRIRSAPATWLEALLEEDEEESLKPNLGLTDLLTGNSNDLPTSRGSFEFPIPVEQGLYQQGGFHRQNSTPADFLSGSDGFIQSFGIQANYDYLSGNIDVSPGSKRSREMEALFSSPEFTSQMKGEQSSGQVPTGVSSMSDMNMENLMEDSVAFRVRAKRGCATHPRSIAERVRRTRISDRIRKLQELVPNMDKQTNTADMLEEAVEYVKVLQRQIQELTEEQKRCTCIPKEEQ
UniProt Q66GR3: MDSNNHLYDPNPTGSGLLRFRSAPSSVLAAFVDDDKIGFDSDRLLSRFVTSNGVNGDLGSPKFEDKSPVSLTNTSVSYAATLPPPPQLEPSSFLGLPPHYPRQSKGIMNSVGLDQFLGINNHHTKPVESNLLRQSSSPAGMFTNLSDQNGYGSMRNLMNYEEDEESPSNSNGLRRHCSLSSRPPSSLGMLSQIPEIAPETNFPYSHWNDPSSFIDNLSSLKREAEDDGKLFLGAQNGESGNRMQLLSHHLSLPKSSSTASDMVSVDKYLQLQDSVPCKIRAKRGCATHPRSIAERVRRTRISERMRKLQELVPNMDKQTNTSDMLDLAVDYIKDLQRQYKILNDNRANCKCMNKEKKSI

Experiments:
[1] = biological target: T1, AtCFL1, full length, GAL4 DNA binding domain fusion (pDEST32-AtCFL1) (Arabidopsis thaliana) (UniProt Q5HZ54); test: two-hybrid; mating-based screen of an Arabidopsis transcription factor library (1598 transcription factors) with the bait pDEST32-AtCFL1 in yeast strain AH109
T1 sequence: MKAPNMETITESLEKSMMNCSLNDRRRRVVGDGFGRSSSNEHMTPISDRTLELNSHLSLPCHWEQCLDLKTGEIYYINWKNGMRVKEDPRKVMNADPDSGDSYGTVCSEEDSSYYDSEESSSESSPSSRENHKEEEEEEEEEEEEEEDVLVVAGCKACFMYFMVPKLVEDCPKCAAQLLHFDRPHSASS

[2] = biological target: T2, AtCFL1 with C155 and C158 residues mutated (C155A C158A), GAL4 DNA binding domain fusion (Arabidopsis thaliana) (UniProt Q5HZ54); test: two-hybrid; bait (pDEST32) and prey (pDEST22) co-transformed into yeast strain AH109; growth on SD-Leu-Trp-His and SD-Leu-Trp-His with 5 mM 3-amino-1,2,4-triazole; three biological replicates
T2 sequence: T1 sequence with C155A, C158A

[3] = biological target: T3, AtCFL1 with C171 and C174 residues mutated (C171A C174A), GAL4 DNA binding domain fusion (Arabidopsis thaliana) (UniProt Q5HZ54); test: as above
T3 sequence: T1 sequence with C171A, C174A

[4] = biological target: T1, AtCFL1, full length, GAL4 DNA binding domain fusion (pDEST32-AtCFL1) (Arabidopsis thaliana); test: as above
[5] = biological target: T4, AtCFL1 C77, C-terminal 77 amino acid residues of AtCFL1, GAL4 DNA binding domain fusion (Arabidopsis thaliana) (UniProt Q5HZ54); test: as above
T4 sequence: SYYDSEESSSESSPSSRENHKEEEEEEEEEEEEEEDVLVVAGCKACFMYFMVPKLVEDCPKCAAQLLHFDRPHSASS

[6] = biological target: T5, AtCFL1 C98, C-terminal 98 amino acid residues of AtCFL1, GAL4 DNA binding domain fusion (Arabidopsis thaliana) (UniProt Q5HZ54); test: as above
T5 sequence: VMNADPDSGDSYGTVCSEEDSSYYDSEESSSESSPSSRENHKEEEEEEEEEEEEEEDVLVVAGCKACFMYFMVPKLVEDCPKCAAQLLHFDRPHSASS

[7] = biological target: T6, AtCFL1N, N-terminal of AtCFL1 with 70 amino acid residues, GAL4 DNA binding domain fusion (Arabidopsis thaliana) (UniProt Q5HZ54); test: as above
T6 sequence: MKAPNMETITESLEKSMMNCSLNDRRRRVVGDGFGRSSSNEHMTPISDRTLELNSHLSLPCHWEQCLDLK

[8] = biological target: T7, AtCFL1 with C155, C158, C171 and C174 residues mutated (C155A C158A C171A C174A), GAL4 DNA binding domain fusion (Arabidopsis thaliana) (UniProt Q5HZ54); test: as above
T7 sequence: T1 sequence with C155A, C158A, C171A, C174A

[9] = biological target: T8, AtCFL1 C50, C-terminal 50 amino acid residues of AtCFL1, GAL4 DNA binding domain fusion (Arabidopsis thaliana) (UniProt Q5HZ54); test: as above
T8 sequence: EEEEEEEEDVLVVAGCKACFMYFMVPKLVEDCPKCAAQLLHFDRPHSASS

[10] = biological target: T9, AtCFL1C, C-terminal of AtCFL1 with 119 amino acid residues, GAL4 DNA binding domain fusion (Arabidopsis thaliana) (UniProt Q5HZ54); test: as above
T9 sequence: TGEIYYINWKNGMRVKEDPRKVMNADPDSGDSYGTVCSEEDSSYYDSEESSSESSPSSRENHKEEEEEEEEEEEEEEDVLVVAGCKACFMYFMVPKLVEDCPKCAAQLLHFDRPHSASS

[11] = biological target: T10, AtCFL1 ΔC20, AtCFL1 with the C-terminal 20 amino acid residues deleted, GAL4 DNA binding domain fusion (Arabidopsis thaliana) (UniProt Q5HZ54); test: as above
T10 sequence: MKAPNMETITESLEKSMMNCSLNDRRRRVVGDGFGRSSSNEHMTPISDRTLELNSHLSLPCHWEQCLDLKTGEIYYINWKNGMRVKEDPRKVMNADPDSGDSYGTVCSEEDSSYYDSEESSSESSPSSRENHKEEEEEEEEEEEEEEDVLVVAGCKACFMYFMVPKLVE

[12] = biological target: T11, cLUC-AtCFL1 (Arabidopsis thaliana) (UniProt Q5HZ54); test: split reporter; firefly luciferase complementation imaging; nLUC and cLUC fusions co-infiltrated into Nicotiana benthamiana leaves, luciferin sprayed, CCD imaging
T11 sequence: T1 sequence

[13] = biological target: T12, AtCFL1-myc (Arabidopsis thaliana) (UniProt Q5HZ54); test: co-IP; AtCFL1-myc and GFP-CFLAP1 transiently co-expressed in Nicotiana benthamiana leaves; procedure as in ref. 58; two biological replicates
T12 sequence: T1 sequence

**Q.** How did the binding [1] turn out when “AtCFL1 associated protein 1 (CFLAP1), GAL4 activation domain fusion (pDEST22-CFLAP1) (from UniProt Q9C690)” was run?
**A.** The binding was “binds”.

**Q.** And the binding [2]?
**A.** Its binding is “no binding”.

**Q.** And the binding [3]?
**A.** Its binding is “no binding”.

**Q.** What about the binding [4] of the same substance?
**A.** The binding was “binds”.

**Q.** What about the binding [5] of the same substance?
**A.** Its binding is “binds”.

**Q.** And the binding [6]?
**A.** Its binding is “binds”.

**Q.** What about the binding [7] of the same substance?
**A.** The binding was “no binding”.

**Q.** And the binding [8]?
**A.** Its binding is “no binding”.

**Q.** What about the binding [9] of the same substance?
**A.** The binding was “binds”.

**Q.** And the binding [10]?
**A.** The binding was “binds”.

**Q.** What about the binding [11] of the same substance?
**A.** The binding was “no binding”.

**Q.** CFLAP1-nLUC (from UniProt Q9C690) was tested. Which binding [12] did it give?
**A.** Its binding is “binds”.

**Q.** For “CFLAP2 (FBH1), two-hybrid prey in pDEST22 (from UniProt Q9C8P8)”, which binding [2] is on record?
**A.** Its binding is “no binding”.

**Q.** And the binding [3]?
**A.** The binding was “no binding”.

**Q.** And the binding [4]?
**A.** Its binding is “binds”.

**Q.** What about the binding [8] of the same substance?
**A.** Its binding is “no binding”.

**Q.** For CFLAP2-nLUC (from UniProt Q9C8P8), which binding [12] is on record?
**A.** Its binding is “binds”.

**Q.** For “FBH2, two-hybrid prey in pDEST22 (from UniProt Q9M0R0)”, which binding [4] is on record?
**A.** Its binding is “no binding”.

**Q.** “FBH4, two-hybrid prey in pDEST22 (from UniProt Q66GR3)” was tested. Which binding [4] did it give?
**A.** Its binding is “no binding”.

**Q.** With GFP-CFLAP1 (from UniProt Q9C690) as the substance, how does the binding [13] read?
**A.** Its binding is “binds”.
